Laboratory results from PubChem BioAssay AID256 (DTP/NCI, 2004).
The list shows only some results of the screen, not a fair sample: it gathers tests that were run many times, whatever their T/C, doses with no T/C, and many T/C values between a quarter and a half above the control. Further doses and runs are listed elsewhere. T/C gives the treated animals as a percentage of the vehicle group. Some entries give survivors of the animals treated and no T/C: the source holds a T/C of zero for them, seemingly a mark for toxic or unscored doses. Some doses without a T/C left all or most animals alive at the check, yet need not have been tolerated: survival well below the control is almost never listed, so the zero probably covers shortened survival too. Counts of survivors are from the toxicity check (mostly the fifth day) where no day follows; animals may have died later. Schedule codes are those of the source, taken here to give the interval after Q, in days (D) or hours (H), and the number of doses after X. Some doses were run more than once; their values stand side by side, smallest first. Some structures stand for samples that the source files as different forms (salt, stereo form or complex); doses refer to the form tested. Where survival is the endpoint, this PubChem deposit counts one and a half times the control or more as active, and values a quarter to a half above the control carry no call in these data; other NCI protocols may use other cut-offs. Counts like (3×) say how often a value occurs here. Some T/C values carry the count of animals alive at the toxicity check (mostly the fifth day); where none is given, no animal had died by that day.

System: CD2F1 mice, L1210 leukemia ip, survival T/C
Test: NCI In Vivo Anticancer Drug Screen. Data for tumor model L1210 Leukemia (intraperitoneal) in CD2F1 (CDF1) mice
Conditions: higher T/C = longer survival
How it was run: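 In this screen, transplantable tumors were grown in mice given either the compound or its vehicle. Results were expressed as the treated measurement relative to the control measurement.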

[1] = T/C endpoint: mean survival time, dose: 400.0 mg/kg/injection, schedule: Q01DX001 (ip), vehicle: saline with Tween-80
[2] = T/C endpoint: mean survival time, dose: 100.0 mg/kg/injection, schedule: Q04DX002 (ip), vehicle: saline with Tween-80
[3] = T/C endpoint: mean survival time, dose: 10.0 mg/kg/injection, schedule: Q01DX009 (ip), vehicle: other

`O=NN(CCCl)C(=O)Nc1ccc(CCO)cc1` was tested. Which T/C (T/C endpoint: mean survival time, dose: 1.35 mg/kg/injection, schedule: Q01DX009 (ip), vehicle: acetone) did it give?
Its T/C is 145 % of control [5 of 6 alive].

What about the T/C (T/C endpoint: mean survival time, dose: 5.0 mg/kg/injection, schedule: Q01DX001 (ip), vehicle: other) of the same molecule?
Its T/C is 147 % of control.

What about the survivor count (T/C endpoint: mean survival time, dose: 78.0 mg/kg/injection, schedule: Q01DX001 (ip), vehicle: other) of the same molecule?
The survivor count was 6 of 6.

`C[Si](C)(C)O/C=C1\CCCCC1=O` was tested. Which survivor count (T/C endpoint: mean survival time, dose: 200.0 mg/kg/injection, schedule: Q01DX009 (ip), vehicle: saline with Tween-80) did it give?
Its survivor count is 3 of 6.

How did the survivor count [1] turn out when `CN1CCC(O)(c2ccccc2C2=NC(C)(C)CO2)CC1` was run?
Its survivor count is 2 of 6.

Which results are given for `NC1CCCCC1N.O=S(=O)([O-])CCCN1CCN(CCO)CC1.O=S(=O)([O-])CCCN1CCN(CCO)CC1.[Pt+4]`?
T/C (T/C endpoint: median survival time, dose: 3.12 mg/kg/injection, schedule: Q04DX003 (ip), vehicle: saline, evaluated on day 30): 131 % of control; T/C (T/C endpoint: median survival time, dose: 3.12 mg/kg/injection, schedule: Q04DX003 (ip), vehicle: saline, evaluated on day 40): 135 % of control; survivor count (T/C endpoint: median survival time, dose: 100.0 mg/kg/injection, schedule: Q04DX003 (ip), vehicle: saline): 4 of 6; survivor count (T/C endpoint: median survival time, dose: 200.0 mg/kg/injection, schedule: Q04DX003 (ip), vehicle: saline): 0 of 6

Which results are given for `O=C(CCl)NC12Nc3ccccc3C1(Cc1ccccc1)CN(C1CCCCC1)C2=O` (stereo not drawn)?
survivor count [2]: 3 of 3; survivor count [1]: 6 of 6

For `CC12CCC(c3cn(C(=O)c4cccnc4)nc31)C2(C)C` (stereo not drawn), which survivor count (T/C endpoint: mean survival time, dose: 200.0 mg/kg/injection, schedule: Q01DX009 (ip), vehicle: Klucel (hydroxypropylcellulose) (HPC)) is on record?
Its survivor count is 3 of 3.

Which results are given for `CC[P+](C)(CC)c1cccc(OC(=O)NC)c1`?
survivor count (T/C endpoint: mean survival time, dose: 0.4 mg/kg/injection, schedule: Q01DX001 (ip), vehicle: saline): 1 of 6; survivor count (T/C endpoint: mean survival time, dose: 0.8 mg/kg/injection, schedule: Q01DX001 (ip), vehicle: saline): 0 of 6

What does the source list for `Nc1nc(S)c(N)c(=S)[nH]1`?
survivor count (T/C endpoint: mean survival time, dose: 150.0 mg/kg/injection, schedule: Q01DX001 (ip), vehicle: carboxymethylcellulose (CMC)): 0 of 6; survivor count (T/C endpoint: mean survival time, dose: 300.0 mg/kg/injection, schedule: Q01DX001 (ip), vehicle: carboxymethylcellulose (CMC)): 0 of 6

What does the source list for `COc1cc(OC)c(/C=C/c2cc[n+](C)c3ccccc23)c(OC)c1`?
survivor count (T/C endpoint: mean survival time, dose: 6.25 mg/kg/injection, schedule: Q01DX009 (ip), vehicle: saline): 0 of 3; survivor count (T/C endpoint: mean survival time, dose: 12.5 mg/kg/injection, schedule: Q04DX002 (ip), vehicle: saline): 0 of 3; survivor count (T/C endpoint: mean survival time, dose: 25.0 mg/kg/injection, schedule: Q04DX002 (ip), vehicle: saline): 0 of 3; survivor count [2]: 0 of 3; survivor count (T/C endpoint: mean survival time, dose: 200.0 mg/kg/injection, schedule: Q04DX002 (ip), vehicle: saline with Tween-80): 0 of 3; survivor count (T/C endpoint: mean survival time, dose: 400.0 mg/kg/injection, schedule: Q04DX002 (ip), vehicle: saline with Tween-80): 0 of 3

Which T/C (T/C endpoint: mean survival time, dose: 400.0 mg/kg/injection, schedule: Q01DX009 (ip), vehicle: saline) does the source give for `CC(C)NCC(O)c1ccc(O)c(O)c1` (stereo not drawn) here?
Its T/C is 125 % of control.

And the survivor count (T/C endpoint: mean survival time, dose: 512.0 mg/kg/injection, schedule: Q01DX001 (ip), vehicle: other)?
The survivor count was 2 of 6.

Which survivor count (T/C endpoint: mean survival time, dose: 200.0 mg/kg/injection, schedule: Q01DX009 (ip), vehicle: acetone) does the source give for `CC1=Nc2ccccc2N=C(C)C1` here?
Its survivor count is 2 of 6.

For `CC1(C)CC(=O)C(CSC(=O)c2ccccc2)C(=O)C1`, which survivor count (T/C endpoint: mean survival time, dose: 100.0 mg/kg/injection, schedule: Q01DX009 (ip), vehicle: Klucel (hydroxypropylcellulose) (HPC)) is on record?
The survivor count was 0 of 10.

What does the source list for `COC1C(C)OC(OC2CC(C)(O)Cc3cc4c(c(O)c32)C(=O)c2c(O)cc3c(c2C4=O)OC2OC3(C)C(O)C(N(C)C)C2O)C(OC)C1(C)OC` (stereo not drawn)?
T/C (T/C endpoint: mean survival time, dose: 1.25 mg/kg/injection, schedule: Q01DX009 (ip), vehicle: other): 115 (2×), 122, 127 % of control; T/C (T/C endpoint: mean survival time, dose: 2.5 mg/kg/injection, schedule: Q01DX009 (ip), vehicle: other): 117 (2×), 122, 127 % of control; T/C (T/C endpoint: mean survival time, dose: 5.0 mg/kg/injection, schedule: Q01DX009 (ip), vehicle: other): 92, 113 (2×), 125 % of control; T/C [3]: 91 % of control [4 of 6 alive]; survivor count [3]: 4 of 6 and 5 of 6

For `Nc1ncnc2c1nc(Cl)n2C1OC2COP(=O)(O)OC2C1O` (stereo not drawn), which survivor count (T/C endpoint: mean survival time, dose: 100.0 mg/kg/injection, schedule: Q01DX005 (ip), vehicle: water) is on record?
The survivor count was 1 of 3.

And the survivor count (T/C endpoint: mean survival time, dose: 200.0 mg/kg/injection, schedule: Q01DX005 (ip), vehicle: water)?
The survivor count was 0 of 3.

Which survivor count (T/C endpoint: mean survival time, dose: 400.0 mg/kg/injection, schedule: Q04DX003 (ip), vehicle: saline with Tween-80) does the source give for `CCCCCC(C)(C)N=C=S` here?
The survivor count was 0 of 6.

With `C=C1C=CC1=O` as the molecule, how does the survivor count (T/C endpoint: mean survival time, dose: 0.1 micrograms/kg/injection, schedule: Q01DX006 (ip), vehicle: other) read?
The survivor count was 5 of 10.

What about the survivor count (T/C endpoint: mean survival time, dose: 6.0 micrograms/kg/injection, schedule: Q01DX006 (ip), vehicle: other) of the same molecule?
Its survivor count is 4 of 10.

And the survivor count (T/C endpoint: mean survival time, dose: 10.0 micrograms/kg/injection, schedule: Q01DX006 (ip), vehicle: other)?
The survivor count was 5 of 10.

And the survivor count (T/C endpoint: mean survival time, dose: 60.0 micrograms/kg/injection, schedule: Q01DX006 (ip), vehicle: other)?
Its survivor count is 4 of 10.

What about the survivor count (T/C endpoint: mean survival time, dose: 600.0 micrograms/kg/injection, schedule: Q01DX006 (ip), vehicle: other) of the same molecule?
The survivor count was 5 of 10.

And the survivor count (T/C endpoint: mean survival time, dose: 600.0 micrograms/kg/injection, schedule: Q01DX009 (ip), vehicle: other)?
Its survivor count is 2 of 10.

What about the survivor count (T/C endpoint: mean survival time, dose: 1000.0 micrograms/kg/injection, schedule: Q01DX006 (ip), vehicle: other) of the same molecule?
The survivor count was 3 of 10.

And the survivor count (T/C endpoint: mean survival time, dose: 1000.0 micrograms/kg/injection, schedule: Q01DX009 (ip), vehicle: other)?
The survivor count was 0 of 10.

Which T/C (T/C endpoint: median survival time, dose: 6.25 mg/kg/injection, schedule: Q01DX009 (ip), vehicle: water) does the source give for `O=NNc1ccc(Cl)cn1` here?
The T/C was 127 % of control.

And the T/C (T/C endpoint: median survival time, dose: 12.0 mg/kg/injection, schedule: Q01DX009 (ip), vehicle: water)?
Its T/C is 142 % of control.

What about the survivor count (T/C endpoint: median survival time, dose: 25.0 mg/kg/injection, schedule: Q01DX009 (ip), vehicle: water) of the same molecule?
The survivor count was 1 of 6.

`CNC(=S)C#N` was tested. Which survivor count (T/C endpoint: median survival time, dose: 100.0 mg/kg/injection, schedule: Q01DX005 (ip), vehicle: saline + Tween-80 + alcohol) did it give?
The survivor count was 0 of 6 and 4 of 6.

And the survivor count (T/C endpoint: median survival time, dose: 200.0 mg/kg/injection, schedule: Q01DX005 (ip), vehicle: saline + Tween-80 + alcohol)?
Its survivor count is 6 of 6.

What about the survivor count (T/C endpoint: median survival time, dose: 400.0 mg/kg/injection, schedule: Q01DX005 (ip), vehicle: saline + Tween-80 + alcohol) of the same molecule?
The survivor count was 0 of 6.
